Results are given in words; binding and its absence hold for the method and conditions named. Binding seen in cells or lysates may run through a third protein. A result given as binding can be weak or reduced; the word gives no strength. Sequences can lack the tags named with a protein.
Target: T1, His-tagged OsSRT1 (rice (Oryza sativa indica)) (UniProt B8ARK7)
T1 sequence: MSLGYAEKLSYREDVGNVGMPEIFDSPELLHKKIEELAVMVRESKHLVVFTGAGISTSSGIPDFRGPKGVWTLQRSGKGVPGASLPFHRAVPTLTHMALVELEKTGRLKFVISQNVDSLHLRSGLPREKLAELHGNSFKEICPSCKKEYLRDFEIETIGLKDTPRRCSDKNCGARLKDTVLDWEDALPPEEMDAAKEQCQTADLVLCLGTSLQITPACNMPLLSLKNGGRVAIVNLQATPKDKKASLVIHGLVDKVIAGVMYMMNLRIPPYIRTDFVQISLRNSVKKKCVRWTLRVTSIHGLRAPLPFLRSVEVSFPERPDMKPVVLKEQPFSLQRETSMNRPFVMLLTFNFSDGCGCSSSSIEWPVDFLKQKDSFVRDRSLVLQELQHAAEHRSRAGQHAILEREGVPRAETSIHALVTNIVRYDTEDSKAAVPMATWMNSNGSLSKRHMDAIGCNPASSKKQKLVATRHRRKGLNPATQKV
Assay: pull-down

OsPARP2 (enzyme)
binding: binds
